Drawing on publication PMC10948934, this text covers binding for one substance.

Sequences of proteins named here, by UniProt entry; tags and fusion partners are left off. A change or cut given only in a name is not applied to a line headed by its entry.
UniProt Q9W0K9: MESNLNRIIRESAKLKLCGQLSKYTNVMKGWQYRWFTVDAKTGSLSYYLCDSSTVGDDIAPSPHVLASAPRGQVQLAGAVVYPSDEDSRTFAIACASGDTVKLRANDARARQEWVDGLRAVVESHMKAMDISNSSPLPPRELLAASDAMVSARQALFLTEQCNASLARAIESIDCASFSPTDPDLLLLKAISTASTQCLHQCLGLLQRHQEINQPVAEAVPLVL

The assay concerns the target T1, dVAP-A (Drosophila melanogaster (endogenous in fly heads)) (UniProt Q9W4N8).
T1 sequence: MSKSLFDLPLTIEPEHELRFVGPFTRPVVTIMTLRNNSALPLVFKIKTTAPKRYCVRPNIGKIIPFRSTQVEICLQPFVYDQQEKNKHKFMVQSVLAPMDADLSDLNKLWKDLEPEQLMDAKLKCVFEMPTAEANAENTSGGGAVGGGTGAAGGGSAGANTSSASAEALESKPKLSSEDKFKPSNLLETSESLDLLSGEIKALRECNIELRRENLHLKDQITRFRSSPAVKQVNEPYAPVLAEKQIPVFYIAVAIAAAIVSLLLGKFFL
The assay can be described thus: co-IP; fly head lysates (UAS constructs under GMR promoter); dVAP-A antibody or control IgG overnight at 4°C, protein G Sepharose; Western blot.

These are yes or no findings as the source states them, for the method shown. In cells and extracts the contact can be indirect. A result given as binding can be weak or reduced; the word gives no strength.

For the substance 3HA::CG9205 (from UniProt Q9W0K9), the binding result is on record as “binds”.
